{"source": "the supplement of paper PMC10338343", "key": {"[1]": {"system": "MILI (PIWIL2) piRISC loaded with L1MC piRNA (26 nt)", "assay": "pre-steady-state target cleavage rate (min^-1); higher = faster piRNA-guided slicing of the target", "conditions": "guide: L1MC piRNA 5'p-UAACUAAAUACUAUGCAAGCUGUAGG; auxiliary factor: none (no GTSF1)", "summary_of_the_method": "(§1)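 A transcribed, DNA-blocked target RNA library […] was incubated at 33 °C for 0–8 or 0–960 min with 1 nM active affinity-purified piRISC carrying one synthetic guide, in HEPES–potassium acetate buffer with or without 500 nM GTSF1 partner protein. Uncleaved targets were then sequenced and normalised to depth and to weakly complementary targets. Data from three trials were pooled, with k3 capped at 0.0001 min^-1, and a burst-and-steady-state fit yielded the pre-steady-state cleavage rate.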"}, "[2]": {"system": "MIWI (PIWIL1) piRISC loaded with L1MC piRNA (30 nt)", "assay": "pre-steady-state target cleavage rate (min^-1); higher = faster piRNA-guided slicing of the target", "conditions": "guide: L1MC piRNA 5'p-UAACUAAAUACUAUGCAAGCUGUAGGUCCU", "summary_of_the_method": "as §1"}, "[3]": {"system": "EfPiwi piRISC loaded with L1MC piRNA (26 nt)", "assay": "pre-steady-state target cleavage rate (min^-1); guide: L1MC piRNA 5'p-UAACUAAAUACUAUGCAAGCUGUAGG; MIWI and MILI are mouse PIWI proteins and EfPiwi is from a freshwater sponge; tags in brackets are library labels; higher = faster piRNA-guided slicing of the target", "summary_of_the_method": "as §1"}, "[4]": {"conditions": "auxiliary factor: none (no GTSF1)"}, "[5]": {"conditions": "auxiliary factor: 500 nM Ephydatia muelleri Gtsf1"}, "[6]": {"conditions": "auxiliary factor: none (no Gtsf1)"}}, "note": "± gives the standard deviation. The entries are a selection whose mix differs from that of the whole data set. Many of these values have a large error. This is one part of the list.", "data": [{"sequence": "UCCUGCUACAGCUUCGAUAGUAUUUACAAA", "values": [{"measurement": "pre-steady-state target cleavage rate", "setting": "[1]", "value": "0.00069 ± 0.0073"}, {"measurement": "pre-steady-state target cleavage rate", "setting": "[2]; [4]", "value": "0.000524 ± 0.011"}, {"measurement": "pre-steady-state target cleavage rate", "setting": "[3]; [5]", "value": "0.00214 ± 0.0025"}]}, {"sequence": "UCCUGGUACAGCUUGCAUAGAAUUUACAAA", "values": [{"measurement": "pre-steady-state target cleavage rate", "setting": "[1]", "value": "0.000582 ± 0.014"}, {"measurement": "pre-steady-state target cleavage rate", "setting": "[2]; [4]", "value": "0.000447 ± 0.0076"}, {"measurement": "pre-steady-state target cleavage rate", "setting": "[3]; [5]", "value": "0.00092 ± 0.0046"}]}, {"sequence": "UCCUGGAUGUCCUUGCAUAGUAUAAAGUAA", "values": [{"measurement": "pre-steady-state target cleavage rate", "setting": "[1]", "value": "0.00147 ± 0.0039"}, {"measurement": "pre-steady-state target cleavage rate", "setting": "[2]; [4]", "value": "0.00122 ± 0.0071"}, {"measurement": "pre-steady-state target cleavage rate", "setting": "[3]; [5]", "value": "0.000888 ± 0.0093"}]}, {"sequence": "UCCUGGAUGAGCUUCCAUAGUAUUUUGUUA", "values": [{"measurement": "pre-steady-state target cleavage rate", "setting": "[1]", "value": "0.000948 ± 0.0068"}, {"measurement": "pre-steady-state target cleavage rate", "setting": "[2]; [4]", "value": "0.000933 ± 0.0072"}, {"measurement": "pre-steady-state target cleavage rate", "setting": "[3]; [5]", "value": "0.000371 ± 0.015"}]}, {"sequence": "UCCUGCUACAGCUUGCAUAGUUAAUUCAAA", "values": [{"measurement": "pre-steady-state target cleavage rate", "setting": "[1]", "value": "0.00143 ± 0.0057"}, {"measurement": "pre-steady-state target cleavage rate", "setting": "[2]; [4]", "value": "0.00075 ± 0.0098"}, {"measurement": "pre-steady-state target cleavage rate", "setting": "[3]; [5]", "value": "0.00202 ± 0.0038"}]}, {"sequence": "UCCUGGAUGUCCUUGCAUAGUAAUUAGAUA", "values": [{"measurement": "pre-steady-state target cleavage rate", "setting": "[1]", "value": "0.000678 ± 0.0092"}, {"measurement": "pre-steady-state target cleavage rate", "setting": "[2]; [4]", "value": "0.0013 ± 0.0059"}, {"measurement": "pre-steady-state target cleavage rate", "setting": "[3]; [5]", "value": "0.00232 ± 0.0046"}]}, {"sequence": "UCCUGGAUGUCGUUGCAUAGUAUUUACUAA", "values": [{"measurement": "pre-steady-state target cleavage rate", "setting": "[1]", "value": "0.00052 ± 0.0092"}, {"measurement": "pre-steady-state target cleavage rate", "setting": "[2]; [4]", "value": "0.000589 ± 0.0096"}, {"measurement": "pre-steady-state target cleavage rate", "setting": "[3]; [5]", "value": "0.000329 ± 0.011"}]}, {"sequence": "UCCUGGAUCAGCUUGCAUUGUAUUUUCAAA", "values": [{"measurement": "pre-steady-state target cleavage rate", "setting": "[1]", "value": "0.000788 ± 0.0057"}, {"measurement": "pre-steady-state target cleavage rate", "setting": "[2]; [4]", "value": "0.00115 ± 0.0039"}, {"measurement": "pre-steady-state target cleavage rate", "setting": "[3]; [5]", "value": "0.00169 ± 0.0032"}]}, {"sequence": "UCCUCCUACAGGUUGCAUAGUAUUUUCAAA", "values": [{"measurement": "pre-steady-state target cleavage rate", "setting": "[1]", "value": "0.00107 ± 0.0043"}, {"measurement": "pre-steady-state target cleavage rate", "setting": "[2]; [4]", "value": "0.000983 ± 0.0048"}, {"measurement": "pre-steady-state target cleavage rate", "setting": "[3]; [5]", "value": "0.00306 ± 0.0021"}]}, {"sequence": "UCCUGGAUGAGCUUGCAUAGUAUUAAGAAA", "values": [{"measurement": "pre-steady-state target cleavage rate", "setting": "[1]", "value": "0.00131 ± 0.0048"}, {"measurement": "pre-steady-state target cleavage rate", "setting": "[2]; [4]", "value": "0.00139 ± 0.0047"}, {"measurement": "pre-steady-state target cleavage rate", "setting": "[3]; [6]", "value": "0.000283 ± 0.034"}]}, {"sequence": "UCCUGGAUGUCGAACGAUAGUCAUUUAGUUA", "values": [{"measurement": "pre-steady-state target cleavage rate", "setting": "[1]", "value": "0.000112 ± 0.046"}, {"measurement": "pre-steady-state target cleavage rate", "setting": "[2]; [4]", "value": "0.000764 ± 0.0063"}, {"measurement": "pre-steady-state target cleavage rate", "setting": "[3]; [5]", "value": "< 0.0001"}]}, {"sequence": "UCCUGGAUGUCGAAGCAUAGUCUUUAGUUA", "values": [{"measurement": "pre-steady-state target cleavage rate", "setting": "[1]", "value": "0.00222 ± 0.0026"}, {"measurement": "pre-steady-state target cleavage rate", "setting": "[2]; [4]", "value": "0.00091 ± 0.0065"}, {"measurement": "pre-steady-state target cleavage rate", "setting": "[3]; [5]", "value": "0.000787 ± 0.0059"}]}, {"sequence": "UCCUGGAACAGCUUGGAUAGUAUUUUCAAA", "values": [{"measurement": "pre-steady-state target cleavage rate", "setting": "[1]", "value": "0.000511 ± 0.011"}, {"measurement": "pre-steady-state target cleavage rate", "setting": "[2]; [4]", "value": "0.00128 ± 0.0044"}, {"measurement": "pre-steady-state target cleavage rate", "setting": "[3]; [5]", "value": "0.00097 ± 0.0046"}]}, {"sequence": "UCCUCCUACAGCUUGCAUUCUAUUUAGAAA", "values": [{"measurement": "pre-steady-state target cleavage rate", "setting": "[1]", "value": "0.000667 ± 0.0068"}, {"measurement": "pre-steady-state target cleavage rate", "setting": "[2]; [4]", "value": "0.000985 ± 0.0053"}, {"measurement": "pre-steady-state target cleavage rate", "setting": "[3]; [5]", "value": "0.00125 ± 0.0043"}]}, {"sequence": "UCCUGGAUGAGCUUCCAUAGUAUUUAGUAA", "values": [{"measurement": "pre-steady-state target cleavage rate", "setting": "[1]", "value": "0.000897 ± 0.0071"}, {"measurement": "pre-steady-state target cleavage rate", "setting": "[2]; [4]", "value": "0.00138 ± 0.0055"}, {"measurement": "pre-steady-state target cleavage rate", "setting": "[3]; [5]", "value": "0.00253 ± 0.0019"}]}, {"sequence": "UCCUGGAUGUCCUUGCAUACAUUUUAGUAA", "values": [{"measurement": "pre-steady-state target cleavage rate", "setting": "[1]", "value": "0.000803 ± 0.0087"}, {"measurement": "pre-steady-state target cleavage rate", "setting": "[2]; [4]", "value": "0.000477 ± 0.014"}, {"measurement": "pre-steady-state target cleavage rate", "setting": "[3]; [5]", "value": "0.000215 ± 0.012"}]}, {"sequence": "UCCUGGAUGUGCAUCCAUAGUAUUUAGUUA", "values": [{"measurement": "pre-steady-state target cleavage rate", "setting": "[1]", "value": "0.000786 ± 0.014"}, {"measurement": "pre-steady-state target cleavage rate", "setting": "[2]; [4]", "value": "0.000314 ± 0.028"}, {"measurement": "pre-steady-state target cleavage rate", "setting": "[3]; [5]", "value": "0.00128 ± 0.0073"}]}, {"sequence": "UCCUGCUACAGCUUCCAUAGUUUUUAGUUA", "values": [{"measurement": "pre-steady-state target cleavage rate", "setting": "[1]", "value": "0.00107 ± 0.0046"}, {"measurement": "pre-steady-state target cleavage rate", "setting": "[2]; [4]", "value": "0.00112 ± 0.0045"}, {"measurement": "pre-steady-state target cleavage rate", "setting": "[3]; [5]", "value": "0.00175 ± 0.0018"}]}, {"sequence": "UCCUGGAUGUCCUUGCAUUCAAUUUAGUUA", "values": [{"measurement": "pre-steady-state target cleavage rate", "setting": "[1]", "value": "0.00142 ± 0.0049"}, {"measurement": "pre-steady-state target cleavage rate", "setting": "[2]; [4]", "value": "0.000603 ± 0.0092"}, {"measurement": "pre-steady-state target cleavage rate", "setting": "[3]; [5]", "value": "0.000526 ± 0.0074"}]}, {"sequence": "UCCUGGAUGUCGAACGUAUCUAUAUUGUUA", "values": [{"measurement": "pre-steady-state target cleavage rate", "setting": "[1]", "value": "< 0.0001"}, {"measurement": "pre-steady-state target cleavage rate", "setting": "[2]; [4]", "value": "0.000255 ± 0.017"}, {"measurement": "pre-steady-state target cleavage rate", "setting": "[3]; [5]", "value": "0.000373 ± 0.01"}]}, {"sequence": "UCCUGGAUCAGCAUGCAUAGUAUUUUCAAA", "values": [{"measurement": "pre-steady-state target cleavage rate", "setting": "[1]", "value": "0.00126 ± 0.0035"}, {"measurement": "pre-steady-state target cleavage rate", "setting": "[2]; [4]", "value": "0.00084 ± 0.0078"}, {"measurement": "pre-steady-state target cleavage rate", "setting": "[3]; [5]", "value": "0.000663 ± 0.0057"}]}, {"sequence": "UCCUGGAACAGCUUGGUUAGUAUUUAGAAA", "values": [{"measurement": "pre-steady-state target cleavage rate", "setting": "[1]", "value": "0.00161 ± 0.0049"}, {"measurement": "pre-steady-state target cleavage rate", "setting": "[2]; [4]", "value": "0.00282 ± 0.0045"}, {"measurement": "pre-steady-state target cleavage rate", "setting": "[3]; [5]", "value": "0.00161 ± 0.0027"}]}, {"sequence": "UCCUGGAACUGCUUCCAUAGUAUUUAGUUA", "values": [{"measurement": "pre-steady-state target cleavage rate", "setting": "[1]", "value": "0.00129 ± 0.0041"}, {"measurement": "pre-steady-state target cleavage rate", "setting": "[2]; [4]", "value": "0.00168 ± 0.0039"}, {"measurement": "pre-steady-state target cleavage rate", "setting": "[3]; [5]", "value": "0.00266 ± 0.0013"}]}, {"sequence": "UCCUGGAUGUCGUUGCAUAGAAUUUUGUUA", "values": [{"measurement": "pre-steady-state target cleavage rate", "setting": "[1]", "value": "0.000536 ± 0.01"}, {"measurement": "pre-steady-state target cleavage rate", "setting": "[2]; auxiliary factor: 500 nM mouse GTSF1", "value": "0.000123 ± 0.031"}, {"measurement": "pre-steady-state target cleavage rate", "setting": "[3]; [6]", "value": "0.000254 ± 0.024"}]}]}
